PubChem BioAssay AID1259425, University of Nebraska Medical Center | 2018

Assay: 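Compare each knockdown with KSR1 silencing using changes in marker transcripts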 (primary screen)
Cells: HCT116 human colon cancer cells
Reagents: siRNA pool against human genes, 50 nM siRNA
Measurement: 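After 50 nM siRNA pool, branched-DNA assay measures six marker transcripts per well, minus blank, normalised to the geometric mean of two housekeeping transcripts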
Scale: BNIP3L mRNA: higher = more BNIP3L transcript after knockdown; NDRG1 mRNA: higher = more NDRG1 transcript after knockdown
In all, the deposit lists about 14,000 reagents; this is a random part of them. Further read-outs or replicates are left out here. Not given: the time to read-out.

SGSM3 scored BNIP3L mRNA, set 1 = 0.0932; NDRG1 mRNA, set 1 = 0.126.
After knock-down of POGK, the record shows BNIP3L mRNA, set 1 = 0.19; NDRG1 mRNA, set 1 = 0.507.
Against AOPEP, the values are BNIP3L mRNA, set 1 = 0.138; NDRG1 mRNA, set 1 = 0.2.
Against AIF1L, the values are BNIP3L mRNA, set 1 = 0.355; NDRG1 mRNA, set 1 = 0.312.
For STKLD1, the values are BNIP3L mRNA, set 1 = 0.239; NDRG1 mRNA, set 1 = 0.158.
Against OVCA2, the entry reads BNIP3L mRNA, set 1 = 0.0499; NDRG1 mRNA, set 1 = 0.242.
With knock-down of OR5I1, the screen gave BNIP3L mRNA, set 1 = 0.101; NDRG1 mRNA, set 1 = 0.553.
FSCN3 showed BNIP3L mRNA, set 1 = 0.097; NDRG1 mRNA, set 1 = 0.192.
Against CCL3L1, the values are BNIP3L mRNA, set 1 = 0.0951; NDRG1 mRNA, set 1 = 0.19.
With knock-down of ATF6B the results were BNIP3L mRNA, set 1 = 0.128; NDRG1 mRNA, set 1 = 0.0474.
Silencing of EMP3 gave: BNIP3L mRNA, set 1 = 0.112; NDRG1 mRNA, set 1 = 0.133.
JAK3 scored BNIP3L mRNA, set 1 = 0.126; NDRG1 mRNA, set 1 = 0.156.
For COG3, the entry reads BNIP3L mRNA, set 1 = 0.209; NDRG1 mRNA, set 1 = 0.401.
After knock-down of C4BPB, the screen gave BNIP3L mRNA, set 1 = 0.19; NDRG1 mRNA, set 1 = 0.224.
RNASEL gave BNIP3L mRNA, set 1 = 0.0746; NDRG1 mRNA, set 1 = 0.199.

Part of the list above, set out differently.
{"Gene": "CCL3L1", "BNIP3L mRNA, set 1": 0.0951, "NDRG1 mRNA, set 1": 0.19}
{"Gene": "ATF6B", "BNIP3L mRNA, set 1": 0.128, "NDRG1 mRNA, set 1": 0.0474}

Next entries follow.
EQTN scored BNIP3L mRNA, set 1 = 0.157; NDRG1 mRNA, set 1 = 0.274.
F12 scored BNIP3L mRNA, set 1 = 0.28; NDRG1 mRNA, set 1 = 0.185.
Silencing of USP38 gave: BNIP3L mRNA, set 1 = 0.0461; NDRG1 mRNA, set 1 = 0.0725.
Silencing of UBXN4 resulted in: BNIP3L mRNA, set 1 = 0.114; NDRG1 mRNA, set 1 = 0.118.
Against C1QC the deposit lists BNIP3L mRNA, set 1 = 0.103; NDRG1 mRNA, set 1 = 0.365.
AK3 scored BNIP3L mRNA, set 1 = 0.0607; NDRG1 mRNA, set 1 = 0.115.
After knock-down of DDX31, the record shows BNIP3L mRNA, set 1 = 0.0866; NDRG1 mRNA, set 1 = 0.662.
For RUFY3, the entry reads BNIP3L mRNA, set 1 = 0.182; NDRG1 mRNA, set 1 = 0.195.
Knock-down of STK35 resulted in: BNIP3L mRNA, set 1 = 0.194; NDRG1 mRNA, set 1 = 0.105.
With knock-down of EIF3F, the record shows BNIP3L mRNA, set 1 = 0.0818; NDRG1 mRNA, set 1 = 0.232.
After knock-down of PPIL3 the results were BNIP3L mRNA, set 1 = 0.126; NDRG1 mRNA, set 1 = 0.266.
With knock-down of MMP3, the record shows BNIP3L mRNA, set 1 = 0.135; NDRG1 mRNA, set 1 = 0.212.
PRKCG gave BNIP3L mRNA, set 1 = 0.233; NDRG1 mRNA, set 1 = 0.0892.
